In PMC7519114:
These are yes or no findings as the source states them, for the method shown. In cells and extracts the contact can be indirect. Some results given as binding are weak or reduced against the parent protein; the word gives no strength. Blank lines part the entries; values can stand above or below the substance they belong to.

Amino acid sequences for entries named in this document (tags omitted).
UniProt P25106: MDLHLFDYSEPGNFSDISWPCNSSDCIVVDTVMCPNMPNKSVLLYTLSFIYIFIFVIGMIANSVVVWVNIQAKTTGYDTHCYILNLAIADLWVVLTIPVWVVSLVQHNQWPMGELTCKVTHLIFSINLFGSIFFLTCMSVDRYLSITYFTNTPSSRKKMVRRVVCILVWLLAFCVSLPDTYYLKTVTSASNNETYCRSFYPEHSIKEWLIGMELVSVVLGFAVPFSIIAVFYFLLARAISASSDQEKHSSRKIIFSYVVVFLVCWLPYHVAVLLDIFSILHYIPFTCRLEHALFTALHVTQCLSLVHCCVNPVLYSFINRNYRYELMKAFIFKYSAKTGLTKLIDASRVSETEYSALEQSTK
UniProt P17302: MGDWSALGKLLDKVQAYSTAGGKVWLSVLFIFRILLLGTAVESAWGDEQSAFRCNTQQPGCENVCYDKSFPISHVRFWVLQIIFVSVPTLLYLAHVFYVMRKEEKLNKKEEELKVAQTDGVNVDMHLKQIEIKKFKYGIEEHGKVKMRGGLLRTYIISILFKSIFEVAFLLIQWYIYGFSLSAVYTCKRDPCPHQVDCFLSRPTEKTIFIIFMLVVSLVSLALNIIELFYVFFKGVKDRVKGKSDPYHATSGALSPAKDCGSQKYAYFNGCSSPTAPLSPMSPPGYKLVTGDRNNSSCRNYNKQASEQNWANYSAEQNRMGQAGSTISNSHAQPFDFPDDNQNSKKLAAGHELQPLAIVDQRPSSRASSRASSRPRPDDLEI
UniProt P56485: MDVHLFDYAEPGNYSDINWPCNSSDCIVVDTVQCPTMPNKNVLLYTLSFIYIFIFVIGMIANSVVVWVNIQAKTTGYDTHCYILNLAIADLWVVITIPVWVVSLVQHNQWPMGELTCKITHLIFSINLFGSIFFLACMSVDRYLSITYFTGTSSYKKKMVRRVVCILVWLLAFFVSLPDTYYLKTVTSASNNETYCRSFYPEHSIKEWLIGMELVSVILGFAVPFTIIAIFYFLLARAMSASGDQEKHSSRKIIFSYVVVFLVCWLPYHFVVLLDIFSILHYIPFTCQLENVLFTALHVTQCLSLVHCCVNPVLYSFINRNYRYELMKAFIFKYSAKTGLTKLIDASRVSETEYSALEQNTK
UniProt P08754: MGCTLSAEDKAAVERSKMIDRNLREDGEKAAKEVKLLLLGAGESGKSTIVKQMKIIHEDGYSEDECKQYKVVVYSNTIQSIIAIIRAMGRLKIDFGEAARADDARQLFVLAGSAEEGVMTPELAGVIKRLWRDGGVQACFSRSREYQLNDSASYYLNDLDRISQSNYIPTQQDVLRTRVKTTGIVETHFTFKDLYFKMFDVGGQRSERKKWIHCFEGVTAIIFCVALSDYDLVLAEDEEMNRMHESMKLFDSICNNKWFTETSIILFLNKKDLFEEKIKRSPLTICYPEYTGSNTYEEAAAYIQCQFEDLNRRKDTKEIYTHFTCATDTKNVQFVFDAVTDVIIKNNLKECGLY
UniProt P32121: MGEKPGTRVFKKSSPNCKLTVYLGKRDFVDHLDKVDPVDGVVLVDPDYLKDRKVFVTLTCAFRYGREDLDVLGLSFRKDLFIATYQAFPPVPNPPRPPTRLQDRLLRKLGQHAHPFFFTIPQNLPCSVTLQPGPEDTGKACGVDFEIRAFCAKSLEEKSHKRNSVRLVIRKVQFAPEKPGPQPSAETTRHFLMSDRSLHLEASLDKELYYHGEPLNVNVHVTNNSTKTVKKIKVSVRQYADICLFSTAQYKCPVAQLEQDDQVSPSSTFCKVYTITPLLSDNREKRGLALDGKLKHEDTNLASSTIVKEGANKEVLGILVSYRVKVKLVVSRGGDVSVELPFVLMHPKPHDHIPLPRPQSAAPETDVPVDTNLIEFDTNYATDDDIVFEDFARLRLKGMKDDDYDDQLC
UniProt P23242: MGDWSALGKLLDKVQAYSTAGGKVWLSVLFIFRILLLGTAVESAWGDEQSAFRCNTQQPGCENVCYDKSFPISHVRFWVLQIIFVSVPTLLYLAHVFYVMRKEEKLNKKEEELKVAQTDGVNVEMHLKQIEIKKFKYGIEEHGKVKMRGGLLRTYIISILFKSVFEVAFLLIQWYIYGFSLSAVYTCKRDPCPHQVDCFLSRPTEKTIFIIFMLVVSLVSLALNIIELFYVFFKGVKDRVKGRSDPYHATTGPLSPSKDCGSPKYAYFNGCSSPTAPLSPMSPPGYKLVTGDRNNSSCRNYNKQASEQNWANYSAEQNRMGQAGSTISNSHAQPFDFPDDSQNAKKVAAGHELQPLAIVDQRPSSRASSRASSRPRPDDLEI

Columns and labels:
[1] = biological target: ACKR3-YFP (not stated (human or mouse cDNA cloned)) (UniProt P25106); assay: FRET or BRET; living HEK293T cells co-expressing an NLuc- or RLuc-tagged donor and a YFP-tagged acceptor; coelenterazine 5 μM, 37 °C; saturation BRET (constant donor, increasing acceptor) and kinetics or concentration-response with vehicle, CXCL12 or CXCL11
[2] = biological target: ACKR3-NLuc (not stated (human or mouse cDNA cloned)) (UniProt P25106); assay: as above
[3] = biological target: HA-tagged atypical chemokine receptor 3 (HA-ACKR3) (not stated (human or mouse cDNA cloned)) (UniProt P25106); assay: co-IP; HEK293T cells expressing HA-ACKR3 or HA-CXCR4 (with FLAG-tagged β-arrestin2 where named); lysis in 1% DDM; 1.5 mg protein on agarose-conjugated anti-HA antibody overnight at 4 °C; Western blot; cells challenged with vehicle, CXCL12 (10 nM) or CXCL11 (100 nM) for 30 min
Cx43-YFP (human) = Cx43-YFP (human) (UniProt P17302); assay: FRET or BRET; living HEK293T cells expressing YFP-tagged Cx43 and RLuc-tagged β-arrestin2 in the presence of ACKR3, with or without CXCL12 stimulation
[4] = biological target: HA-ACKR3 of HA-ACKR3 knock-in mice (mouse (endogenous in HA-ACKR3 knock-in embryonic brain)) (UniProt P56485); assay: co-IP; HA-immunoprecipitation from E17 embryonic brains of WT or HA-ACKR3 knock-in mice; lysis in 150 mM NaCl, 5 mM EDTA, 50 mM Tris-HCl pH 7.4, DDM 1.5%; anti-HA magnetic beads overnight at 4 °C; Western blot

binding [1]: binds
Substance: Gαi3-RLuc (from UniProt P08754 1-354)

binding [2]: binds
Substance: Cx43-YFP (from UniProt P17302 1-382)

binding [3]: binds
Substance: Gap Junction Alpha-1 protein (GJA1, Connexin 43, Cx43) (from UniProt P17302 1-382)

binding (Cx43-YFP (human)): no binding
Substance: β-arrestin2-RLuc (from UniProt P32121 1-409)

binding [4]: binds
Substance: Connexin 43 (Cx43) of embryonic mouse brain (from UniProt P23242 1-382)
